Literature values in patent US11793762B2, “Composition and method for reducing joint pain associated with hemarthrosis and hemophilic arthropathy” (UPEXMED CO. LTD., priority 2018, dated 2023).
At least one structure is not confirmed: it was looked up by name or label, or the drawing left a doubt.

Test system: hemophilic arthropathy (HA)
Details: oral, 30 patients with hemophilia A and painful advanced HA, 2 months (Rodriguez-Merchan)

Cc1ccc(-c2cc(C(F)(F)F)nn2-c2ccc(S(N)(=O)=O)cc2)cc1 [Celecoxib]
joint pain vs control group: improved significantly
